Results from US20180289840A1, “Method for Evaluating Hematological Toxicity of Drug Under Evaluation, and Model for Evaluating Hematological Toxicity of Drug Under Evaluation” (Central Institute for Experimental Animals, priority 2015, published 2018).

Tested on: human CD45+ cells (granulocytes-based progenitor cells)
Assay: Colony forming test on granulocytes-based myelopoiesis progenitor cells, human CD45+ bone marrow cells of humanized Tg-NOG mouse
Type: cell-based
Conditions: for Ratio mouse/human (IC50): IC50 mCD45+ / IC50 hCD45+; for Ratio mouse/human (IC90): IC90 mCD45+ / IC90 hCD45+
Source text: The mouse at week 14 after the transplantation of the hCD34^+ cells derived from the human cord blood was euthanized by removing the blood from the abdominal aorta under anesthesia of isoflurane. Then, the femur was collected. The femur was sterilely washed using the Iscove's Modified Dulbecco's Medium (IMDM, available from Life Technologies) to prepare a suspension of cells. The suspension of cells was passed through a nylon filter (pore size of 35 μm, Cell Strainer, available from BD Biosciences) to obtain a filtrate as a solution of the bone marrow cells. A portion of the solution of the bone marrow cells was subjected to FACS analysis to calculate a ratio between the human-derived leucocytes (hCD45^+) and the mouse-derived leucocytes (mCD45^+).
The human 45^+ cells were suspended in a methyl cellulose medium (MethoCult H4534, available from Stem cell technologies) so as to be 5×10^4 cells/1.1 mL/dish. Then, EHC was added at 0.14 nM, 0.4 nM, 1.2 nM, 3.7 nM, 11 nM, or 33 nM. Meanwhile, PTX was added at 0.12 nM, 0.4 nM, 1.1 nM, 3.3 nM, 10 nM, 30 nM, or 90 nM. The resultant was seeded in a dish and was cultured for 16 days at 37° C. under 5% CO2.
As the vehicle control, dimethyl sulfoxide (DMSO, final concentration of 0.002 v/v %) was used. For each concentration, two dishes were used.
After a period of the cultivation was completed, the number of the colonies derived from the granulocytes formed was counted and an average number of the colonies in each concentration was calculated. An average number of the colonies in the vehicle control was considered as 100%. The average number of the colonies in each concentration was considered as a relative value (IC50 and IC90). Here, the IC50 means a concentration at which formation of 50% of the colonies is inhibited and the IC90 means a concentration at which formation of 90% of the colonies is inhibited.
The collection, preparation, and cultivation of the bone marrow cells and the calculation of the percentage of inhibition of colony formation were performed in the same manner as in Example 3-1.
The human CD45^+ cells were exposed to nogitecan at an exposure concentration of 0.41 nM, 1.2 nM, 3.7 nM, 11.1 nM, 33.3 nM, or 100 nM. Meanwhile, the other human CD45^+ cells were exposed to oxaliplatin at an exposure concentration of 123 nM, 370 nM, 1,111 nM, 3,333 nM, 10,000 nM, or 30,000 nM.
A physiological saline solution was used for the vehicle control of nogitecan and a distilled water was used for the vehicle control of oxaliplatin.
An average number of the colonies in the vehicle control was considered as 100%. The average number of the colonies in each concentration was considered as a relative value (IC50 and IC90). Here, the IC50 means a concentration at which formation of 50% of the colonies is inhibited and the IC90 means a concentration at which formation of 90% of the colonies is inhibited.

SMILES | Ratio mouse/human (IC50) | Ratio mouse/human (IC90)
O=C1[O][Pt]2([NH][C@@H]3CCCC[C@H]3[NH]2)[O]C1=O [Oxaliplatin, oxaliplatin] | 0.16 | 0.18
CC[C@@]1(O)C(=O)OCc2c1cc1n(c2=O)Cc2cc3c(CN(C)C)c(O)ccc3nc2-1 [Nogitecan, nogitecan] | 16.3 | 12.5
CC(=O)O[C@H]1C(=O)[C@@]2(C)[C@H]([C@H](OC(=O)c3ccccc3)[C@]3(O)C[C@H](OC(=O)[C@H](O)[C@@H](NC(=O)c4ccccc4)c4ccccc4)C(C)=C1C3(C)C)[C@]1(OC(C)=O)CO[C@@H]1C[C@@H]2O [PTX, paclitaxel] | 0.8 | 1.0
CCc1c2c(nc3ccc(O)cc13)-c1cc3c(c(=O)n1C2)COC(=O)[C@]3(O)CC [EHC, 7-Ethyl-10-hydroxycamptothecin] | 9.3 | 9.5
